Primary screen of a compound library

Measurements from “University of Dundee, Small-Polar-MMV Screening Library” (2021), ChEMBL document CHEMBL3988442.

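Assay of Toxoplasma gondii numbers, read through their beta-galactosidase reporter with a colour substrate. Tested at 10 µM. Higher reads as fewer parasites (inferred from which compounds were picked for retests). About 67,000 compounds were tested under these conditions; 0.38% (about 260) showed 50% or more at least once.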

Each number is a percent effect as filed. The record does not define 0% and 100%; most values in the screen are far below 50% and negative numbers occur (in some assays of this library far below -100). This is an unselected part of the compounds tested.

Compound | percent effect
[H][C@@]12CS(=O)(=O)C[C@]1([H])N(C(=O)c1cscn1)CCN2C(=O)C(C)C | -1.628
O=c1c2cccc(F)c2ncn1CCN1CCOCC1 | 5.513
O=C(NCCCN1CCOCC1)c1cc(-c2ccc3c(c2)CCO3)n[nH]1 | 5.738
CN(Cc1ccccc1)C1(C(=O)NCC(N)=O)Cc2ccccc2C1 | -9.746
Cc1ccc(NC2CCCN(CCCc3ccccc3)C2)nn1 (centres unmarked) | -5.172
CN(Cc1noc(C2CC2)n1)C1CCN(Cc2ccncc2)C1 (centres unmarked) | -31.2
[H][C@]12CN(Cc3ccc(OC)cc3)C[C@@]1([H])S(=O)(=O)CC[C@@H]2C(=O)NC | 18.3
Cc1nnc(CCNC(=O)Nc2ccc(S(C)(=O)=O)cc2)[nH]1 | -14.58
Cc1ccc(C(=O)NCCNC(=O)c2cncnc2C)cc1F | 12.63
CC(=O)N1CCCC1c1csc(Nc2cnccn2)n1 (centres unmarked) | -0.7493
O=C(CN1CCc2ccccc2C1)NCc1cc2n(n1)CCCNC2 | 4.712
[H][C@@]12CCCC[C@]1(O)CCN(C(C)=O)[C@H]2c1ccccc1 | 13.7
Cc1nsc(N2CCCN(CC(=O)N(C)C3CC3)CC2)n1 | -3.99
O=C(O)C(F)(F)F.[H][C@]12CCC(=O)N(c3ccccc3)[C@@]1([H])CCN2c1ncccn1 | -6.808
CCC(O)CN1CCN(C(=O)c2ccc(Cn3cccc3)cc2)CC1 (centres unmarked) | -35.72
Cc1n[nH]c2c1C(c1ccc3c(c1)OCO3)SCC(=O)N2 (centres unmarked) | 26.87
Cc1nn(C)cc1Cn1c(=O)ccc2ccccc21 | -0.9484
Cc1ccn(CCC(=O)NCc2ccc(C)o2)n1 | 7.695
Cc1noc(-c2ccnc(Oc3cccc(CN4CCCC4)c3F)c2)n1 | -44.99
N#CCCN(Cc1ccco1)C(=O)C1CCCc2ccccc21 (centres unmarked) | -0.609
COc1c(CNCc2cccc(Cn3cccn3)c2)c(C)nn1C | -27.67
Cc1cnn(CC2CCCN2CCCS(=O)(=O)N(C)C)c1 (centres unmarked) | -7.369
Cc1ccccc1C(O)CNC(=O)Cc1ccc(F)cc1 (centres unmarked) | 11.71
CCc1noc(CS(=O)(=O)Cc2ccccc2Cl)n1 | -10.28
OCc1cn(CC2CCN(C3CCSC3)CC2)nn1 (centres unmarked) | -12.09
Cn1nc(C(=O)NCc2ccc(F)cc2)c2c1CCS(=O)(=O)C2 | 10.57
COCc1cncc2c1CCN(C(=O)c1ccsc1)C2 | -1.116
COc1ccccc1N1CCC(CNS(=O)(=O)c2cccc(C#N)c2)C1 (centres unmarked) | 11.69
CN(CCCNS(=O)(=O)N1CCC2(CC1)OCCO2)c1ccccc1 | -23.72
CCn1cc(CN2CCC(c3[nH]ncc3S(C)(=O)=O)C2)cn1 (centres unmarked) | 3.993
Fc1cccc(-c2nnn3c2COC(CNCc2ccsc2)C3)c1.O=C(O)C(F)(F)F (centres unmarked) | 5.634
Cc1cncc(C2CCN(C(=O)CCc3ccnn3C)CC2)n1 | 4.453
Cc1cccc(CN2CC3(CCN(Cc4ccco4)CC3)OCC2=O)n1.O=C(O)C(F)(F)F.O=C(O)C(F)(F)F | 13.74
O=C(Cn1cc(C(=O)O)ccc1=O)NCc1ccc(F)c(Cl)c1 | -5.38
CCSCCC(=O)NCc1cc2n(n1)CCN(C(=O)N(C)C)C2 | -0.06028
O=C(Cc1ccon1)NC1CC2(CCC2)Oc2ccccc21 (centres unmarked) | 24.09
N#Cc1cc2c(=O)n(CC(O)C(F)(F)F)ccc2[nH]c1=O (centres unmarked) | 0.9798
O=C(CNC(=O)c1cnc2ccccc2c1O)NCCCn1ccnc1 | -2.624
O=C(NCC(=O)N1CCCCC1)c1sccc1C1CC1 | -6.409
CC(Cc1ccccc1F)C(=O)Nc1ccc(OCCC(N)=O)cc1 (centres unmarked) | -7.502
CC(=O)NC1CCN(c2cc(C3CCNCC3)nc(C)n2)C1 (centres unmarked) | 1.299
Cc1cc(C)c(CNC(=O)NCc2ccc3c(c2)OCCO3)c(=O)[nH]1 | 0.9892
CC(=O)N[C@@H](CC(C)C)C(=O)N1CCC(n2cc(C(C)(C)N)nn2)CC1 | -0.5325
CC(Oc1ccc2c(c1)OCO2)C(=O)N1CCC(c2ncc[nH]2)CC1 (centres unmarked) | 8.157
CCOCC1CN(C(=O)c2ccncn2)Cc2cnn(CC)c21.O=C(O)C(F)(F)F (centres unmarked) | 8.294
Cc1ccn2ncc(C(=O)N3CCCC(c4noc(C)n4)C3)c2n1 (centres unmarked) | 14.25
Cc1cnn(CC2CCCN2C(=O)c2n[nH]c(=O)c3ccccc23)c1 (centres unmarked) | 2.61
c1cnn(CC2CN(Cc3nc(-c4ccsc4)no3)CCO2)c1 (centres unmarked) | -13.55
CC(CC(=O)c1ccco1)NC(=O)c1ccon1 (centres unmarked) | -5.291
CC(C)S(=O)(=O)NC(=O)CC(c1ccccc1)C(F)(F)F (centres unmarked) | 4.196
COc1cccc(CNC(=O)c2cc(C)nc(N3CCCC3)n2)c1 | 15.71
Nc1cc2c(nn1)CCN(C(=O)Cc1ccc3c(c1)CCO3)C2 | -0.6952
CNC(=O)Cn1cc(C#N)c(=O)c2cc(Br)ccc21 | -1.652
Cc1noc(C)c1CN(C)C(=O)COc1cccc(C#N)c1 | -10
CCOCC(=O)N1CCC(c2nccn2CC2CC2)CC1 | -3.569
O=C(NCc1cccc2cccnc12)N1CCC(n2cncn2)CC1 | -1.406
[H][C@]12CC[C@]([H])(CN(c3ncccn3)C1)N(C(=O)Cn1ccc(=O)cc1)C2 | 5.35
O=C(O)C(F)(F)F.c1ccc(CN2CCc3ncnc(-c4ccsc4)c3CC2)nc1 | -4.034
O=S(=O)(c1ccc2c(c1)OCCO2)N1CCC(OCc2ccccn2)C1 (centres unmarked) | 3.767
Cc1occc1CNC(=O)C1CCCN1C(=O)C1CC1 (centres unmarked) | 9.732
CCCc1nc(N2Cc3cnn(Cc4ccc(F)cc4)c3C2)no1 | -1.432
Cn1c(NCC(=O)N2CCCC2)c(C#N)c(=O)n(C)c1=O | 3.104
c1cncc(COCC2CNCc3nccn3C2)c1 (centres unmarked) | 5.987
CC(C)c1ncc(CN2C[C@@H](CN3CCC(O)CC3)[C@@H](CO)C2)cn1 | 1.328
CC(CNC(=O)NCCCc1cc(N)n(-c2ccccc2)n1)N(C)C (centres unmarked) | 20.4
CCn1cnnc1C1CCN(C(=O)c2cccc(N(C)C)c2)CC1 | 11.31
N#Cc1ccccc1CN1CCc2sccc2C1 | 9.661
Cc1nc(N2CCC(C)CC2)ncc1-c1cc(O)nc(N2CCCC2)n1 | 5.724
Cc1ccc(CN2CCC3(CC2)C(c2ccccc2)CC(=O)N3C)o1.O=C(O)C(F)(F)F (centres unmarked) | -19.66
c1ccc(OC2CCCC2)c(CNC2CCc3ncnn3C2)c1 (centres unmarked) | -3.383
CCSCCC(=O)Nc1ncn(CC(=O)NCc2ccccc2)n1 | 1.982
O=C(Cc1ccc(-n2cnnn2)cc1)Nc1cnn(CC(F)F)c1 | -3.181
[H][C@@]12CS(=O)(=O)C[C@]1([H])N(C(=O)c1cnccn1)CCN2CCC | -0.9233
COc1c(CNC2CCc3ccccc32)c(C(C)C)nn1C (centres unmarked) | -2.138
O=C(O)C(F)(F)F.[H][C@@]12CCN(Cc3sccc3C)C[C@]1(COC)CCO2 | -31.46
[H][C@@]12OCCN(C(=O)c3ccc(OC)c(F)c3)[C@@]1([H])CC[C@@H]2OCC1CC1 | 0.4854
Cc1cc(-c2ccc(=O)n(CCNC(=O)C3CCCCC3)n2)c(C)o1 | -1.769
CCC(C)C(=O)NCc1ccc(-n2cncn2)nc1 (centres unmarked) | 2.548
Cc1cc(C[S+]([O-])Cc2ccccc2F)on1 (centres unmarked) | 6.158